The source of these data is the supplement of paper PMC11264405.

Holding throughout (assay): minimum inhibitory concentration
Compound in assay [1]: CCC[C@@H]1C[C@@H](C(=O)N[C@@H]([C@H]2O[C@H](SC)[C@H](O)[C@@H](O)[C@H]2O)[C@H](C)Cl)N(C)C1 [clindamycin]
Compound in assay [2]: Cc1ncc([N+](=O)[O-])n1CCO [metronidazole]
Compound in assay [3]: CN[C@H](CC(C)C)C(=O)N[C@H]1C(=O)N[C@@H](CC(N)=O)C(=O)N[C@H]2C(=O)N[C@H]3C(=O)N[C@H](C(=O)N[C@H](C(=O)O)c4cc(O)cc(O)c4-c4cc3ccc4O)[C@H](O)c3ccc(c(Cl)c3)Oc3cc2cc(c3O[C@@H]2O[C@H](CO)[C@@H](O)[C@H](O)[C@H]2O[C@H]2C[C@](C)(N)[C@H](O)[C@H](C)O2)Oc2ccc(cc2Cl)[C@H]1O [vancomycin]
Compound in assay [4]: CC(=O)NC[C@H]1CN(c2ccc(N3CCOCC3)c(F)c2)C(=O)O1 [linezolid]
Compound in assay [5]: CO[C@H]1/C=C/O[C@@]2(C)Oc3c(C)c(O)c4c(O)c(c(/C=N/N5CCN(C)CC5)c(O)c4c3C2=O)NC(=O)/C(C)=C\C=C\[C@H](C)[C@H](O)[C@@H](C)[C@@H](O)[C@@H](C)[C@H](OC(C)=O)[C@@H]1C [rifampicin]
Compound in assay [6]: C[C@@H](O)[C@H]1C(=O)N2C(C(=O)O)=C(S[C@@H]3CN[C@H](C(=O)N(C)C)C3)[C@H](C)[C@H]12 [meropenem]
Compound in assay [7]: CN(C)c1cc(NC(=O)CNC(C)(C)C)c(O)c2c1C[C@H]1C[C@H]3[C@H](N(C)C)C(O)=C(C(N)=O)C(=O)[C@@]3(O)C(O)=C1C2=O [tigecycline]
Compound in assay [8]: C[C@@H](O)[C@H]1C(=O)N2C(C(=O)O)=C(SCCNC=N)C[C@H]12 [imipenem]
Compound in assay [9]: CCc1c(Cl)c(O)c(Cl)c(O)c1C(=O)O[C@H]1[C@H](O)[C@H](OC)[C@H](OC/C2=C\C=C\C[C@H](O)/C(C)=C/[C@H](CC)[C@@H](O[C@@H]3OC(C)(C)[C@@H](OC(=O)C(C)C)[C@H](O)[C@@H]3O)/C(C)=C/C(C)=C/C[C@@H]([C@@H](C)O)OC2=O)O[C@@H]1C [fidaxomicin]

Bounds are passed on as bounds.

With “Clostridioides difficile PCR ribotype 002 isolate #13 (European region: North, country: Sweden, isolate source: Human, ribotype: 002)”, the minimum inhibitory concentration is 16 µg/mL in assay [1]; < 0.125 µg/mL in [2]; 2 µg/mL in [3]; 2 µg/mL in assay [4]; < 0.001 µg/mL in assay [5]; 4 µg/mL in assay [6]. The minimum inhibitory concentration in assay [7] was < 0.03 µg/mL; in assay [8], 4 µg/mL; in assay [9], 0.015 µg/mL.

Regarding “Clostridioides difficile PCR ribotype 002 isolate #14 (European region: West, country: France, isolate source: Human, ribotype: 002)”, the minimum inhibitory concentration in [1] was 16 µg/mL; in assay [2], < 0.125 µg/mL; in [3], 1 µg/mL; in assay [4], 2 µg/mL; in assay [5], < 0.001 µg/mL; in [6] it was 4 µg/mL. In addition, the minimum inhibitory concentration is < 0.03 µg/mL in assay [7], 2 µg/mL in assay [8] and 0.06 µg/mL in assay [9].

In the case of “Clostridioides difficile PCR ribotype 002 isolate #15 (European region: North, country: UK, isolate source: Human, ribotype: 002)”, the minimum inhibitory concentration is 16 µg/mL in [1]; < 0.125 µg/mL in assay [2]; 2 µg/mL in assay [3]; 2 µg/mL in [4]; < 0.001 µg/mL in [5]; 8 µg/mL in assay [6]. In addition, the minimum inhibitory concentration in assay [7] was < 0.03 µg/mL; in [8] it was 1 µg/mL; in assay [9], 0.03 µg/mL.

“Clostridioides difficile PCR ribotype 002 isolate #16 (European region: North, country: UK, isolate source: Human, ribotype: 002)”: the minimum inhibitory concentration in assay [1] is 0.25 µg/mL; in assay [2], < 0.125 µg/mL; in [3], 0.25 µg/mL; in assay [4] it was 2 µg/mL; in [5], < 0.001 µg/mL; in assay [6], 4 µg/mL. For the same test system, the minimum inhibitory concentration in assay [7] is < 0.03 µg/mL; in assay [8], 2 µg/mL; in assay [9], 0.06 µg/mL.

On to “Clostridioides difficile PCR ribotype 002 isolate #17 (European region: South, country: Spain, isolate source: Human, ribotype: 002)”, for which the minimum inhibitory concentration in assay [1] was 32 µg/mL; in [2] it was 0.25 µg/mL; in assay [3] it was 0.5 µg/mL; in [4], 2 µg/mL; in assay [5], < 0.001 µg/mL; in [6], 2 µg/mL. The minimum inhibitory concentration was 0.06 µg/mL in [7], 2 µg/mL in [8] and 0.06 µg/mL in assay [9].

Take “Clostridioides difficile PCR ribotype 002 isolate #18 (European region: North, country: UK, isolate source: Human, ribotype: 002)”: the minimum inhibitory concentration in assay [1] is 8 µg/mL; in assay [2], < 0.125 µg/mL; in [3], 1 µg/mL; in assay [4], 2 µg/mL; in [5], < 0.001 µg/mL; in assay [6], 4 µg/mL. The minimum inhibitory concentration is < 0.03 µg/mL in assay [7], 2 µg/mL in assay [8] and 0.03 µg/mL in assay [9].

With “Clostridioides difficile PCR ribotype 002 isolate #19 (European region: North, country: UK, isolate source: Human, ribotype: 002)”, the minimum inhibitory concentration is 2 µg/mL in assay [1]; < 0.125 µg/mL in assay [2]; 0.5 µg/mL in assay [3]; 2 µg/mL in assay [4]; < 0.001 µg/mL in assay [5]; 2 µg/mL in [6]. Besides, the minimum inhibitory concentration in [7] was < 0.03 µg/mL; in [8], 2 µg/mL; in assay [9], 0.03 µg/mL.

Turning to “Clostridioides difficile PCR ribotype 002 isolate #20 (European region: North, country: UK, isolate source: Human, ribotype: 002)”, the minimum inhibitory concentration in assay [1] is 2 µg/mL; in [2] it was < 0.125 µg/mL; in [3], 0.5 µg/mL; in assay [4], 0.25 µg/mL; in [5], < 0.001 µg/mL; in assay [6] it was 2 µg/mL. Besides, the minimum inhibitory concentration is < 0.03 µg/mL in assay [7], 2 µg/mL in assay [8] and 0.03 µg/mL in assay [9].

As for “Clostridioides difficile PCR ribotype 002 isolate #283 (European region: West, country: Netherlands, isolate source: Animal, ribotype: 002)”, the minimum inhibitory concentration is 16 µg/mL in assay [1]; < 0.125 µg/mL in assay [2]; 0.5 µg/mL in assay [3]; 2 µg/mL in assay [4]; < 0.001 µg/mL in [5]; 4 µg/mL in assay [6]. Further, the minimum inhibitory concentration was < 0.03 µg/mL in assay [7] and 0.06 µg/mL in [9].

Regarding “Clostridioides difficile PCR ribotype 014 isolate #74 (European region: West, country: Netherlands, isolate source: Human, ribotype: 014)”, the minimum inhibitory concentration was 8 µg/mL in assay [1]; 0.25 µg/mL in assay [2]; 0.5 µg/mL in assay [3]; < 0.001 µg/mL in assay [5]; 4 µg/mL in [6]; < 0.03 µg/mL in assay [7]. Moreover, the results for the minimum inhibitory concentration in [8] and in [9] were 1 µg/mL and 0.03 µg/mL, respectively.

As to “Clostridioides difficile PCR ribotype 014 isolate #75 (European region: South, country: Italy, isolate source: Human, ribotype: 014)”, the minimum inhibitory concentration in [1] is 16 µg/mL; in [2] it was < 0.125 µg/mL; in assay [3] it was 0.5 µg/mL; in assay [5] it was < 0.001 µg/mL; in assay [6], 2 µg/mL; in [7], 0.06 µg/mL. The minimum inhibitory concentration in [8] worked out at 1 µg/mL; in assay [9], 0.03 µg/mL.

As to “Clostridioides difficile PCR ribotype 027 isolate #117 (European region: East, country: Poland, isolate source: Human, ribotype: 027)”, the minimum inhibitory concentration in assay [2] is 2 µg/mL; in assay [3], 1 µg/mL; in [4], 2 µg/mL; in assay [5], > 32 µg/mL; in assay [6], 4 µg/mL; in [7], < 0.03 µg/mL. In addition, the minimum inhibitory concentration in assay [8] came out at 4 µg/mL; in assay [9] it was 0.03 µg/mL.

As to “Clostridioides difficile PCR ribotype 027 isolate #126 (European region: East, country: Romania, isolate source: Human, ribotype: 027)”, the minimum inhibitory concentration in assay [1] was < 0.125 µg/mL; in assay [2] it was 0.5 µg/mL; in assay [3] it was 0.5 µg/mL; in assay [4] it was 0.25 µg/mL; in assay [5] it was < 0.001 µg/mL; in assay [6], 4 µg/mL. Also, the minimum inhibitory concentration in assay [8] was 4 µg/mL; in [9], 0.03 µg/mL.

With “Clostridioides difficile PCR ribotype 078 isolate #181 (European region: South, country: Spain, isolate source: Human, ribotype: 078)”, the minimum inhibitory concentration was 16 µg/mL in assay [1]; 0.25 µg/mL in [2]; 1 µg/mL in assay [3]; < 0.001 µg/mL in assay [5]; 4 µg/mL in assay [6]; 0.06 µg/mL in assay [7]. Also, the figures for the minimum inhibitory concentration in [8] and in assay [9] were 2 µg/mL and 0.03 µg/mL, respectively.
